Measurements reported in patent publication US20240358862.
Construct, isoform or probe ends are uncertain for at least one entry. At least one result comes from cells or an extract, where the contact may be indirect.

The chains behind the UniProt entries cited, without tags or fusion partners. Residues count along the entry.
UniProt O43653, 12-83: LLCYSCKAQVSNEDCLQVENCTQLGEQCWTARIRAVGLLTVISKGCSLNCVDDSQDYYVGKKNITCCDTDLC

Target: PSCA (prostate stem cell antigen) (Homo sapiens) (UniProt O43653)
Assay: pull-down
Conditions: PC-3 membrane proteins; anti-PSCA western blot and LC-MS/MS identification; protein in an extract; label: 3'-ICG (biotin or agarose conjugate for pull-down); single-stranded DNA

## TGCCACTACAGCTGGTTCGGTTTGGTGACTTCGTTCTTCGTTGTGGTGCTTAGTGGC [GGa-ICG]
  binding result: binds
